Where a chain is given by its changes, count along the chain named. No constants are given. Whether binding was seen depends on the method and setting. A result given as binding can be weak or reduced; the word gives no strength.
B1: PRO571 (humanized anti-IL-17A scFv, CDR graft of 27-31-C04) (scFv)
scFv: DIQMTQSPSSLSASVGDRVTITCQASESIYRYLSWYQQKPGKAPKLLIYLASTLTSGVPSRFSGSGSGTDFTLTISSLQPEDFATYYCQSNFGTASTTYYNTFGGGTKLTVLGGGGGSGGGGSGGGGSGGGGSEVQLVESGGGLVQPGGSLRLSCAASGFSFSGFYYMCWVRQAPGKGLEWIGCIDTGDGTTYYASWAKGRFTISRDNSKNTVYLQMNSLRAEDTAVYYCARDAAYGGYAYPAHGMDLWGQGTLVTVSS
B2: PRO592 (humanized anti-IL-17A scFv, STR graft of 27-31-C04) (scFv)
scFv: B1 scFv with R152T, Q251P

Columns and labels:
[1] = target: human IL-17A (human); experiment: competition ELISA: scFv coated, biotinylated IL-17A blocked by unlabeled IL-17A
[2] = target: human IL-17A (human); experiment: competitive ELISA: biotinylated human IL-17A preincubated with the scFv, then binding to coated IL-17RA detected (blocked ligand: IL-17RA) [B]

| Binder | binding [1] | binding [2] |
| --- | --- | --- |
| B1 | binds | binds |
| B2 | binds | binds |

Source: patent publication US20220127350A1
